This note sets out measurements from publication PMC10602526.

No constants are given. Whether binding was seen depends on the method and setting. In cells and extracts the contact can be indirect. A yes stands for co-enrichment or nearness to the bait. Other partners may have been found.

For assay [1], the target named is SEC23B, FLAG-tagged, expressed in HEK293T cells (UniProt Q15437). The experiment in a line: affinity purification with mass spectrometry; SEC23B-associated proteins in the presence or absence of OTUD1; FLAG-SEC23B transfected in HEK293T with or without GFP-OTUD1, enriched on anti-FLAG M2 beads, silver-stained gel, mass spectrometry (Figure 6a, S9C).
Assay [2] addresses SEC23B, FLAG-tagged, expressed in HEK293T cells, Q15437. The description is as above. As to conditions: remark: other sources report otherwise.

B1: SEC24A found with SEC23B by mass spectrometry (protein, UniProt O95486 1-1093)
chain: MSQPGIPASGGAPASLQAQNGAALASGSPYTNGPVQNALLSSQESVSQGYNFQLPGSYPHPIPAKTLNPVSGQSNYGGSQGSGQTLNRPPVASNPVTPSLHSGPAPRMPLPASQNPATTPMPSSSFLPEANLPPPLNWQYNYPSTASQTNHCPRASSQPTVSGNTSLTTNHQYVSSGYPSLQNSFIKSGPSVPPLVNPPLPTTFQPGAPHGPPPAGGPPPVRALTPLTSSYRDVPQPLFNSAVNQEGITSNTNNGSMVVHSSYDEIEGGGLLATPQLTNKNPKMSRSVGYSYPSLPPGYQNTTPPGATGVPPSSLNYPSGPQAFTQTPLGANHLTTSMSGLSLQPEGLRVVNLLQERNMLPSTPLKPPVPNLHEDIQKLNCNPELFRCTLTSIPQTQALLNKAKLPLGLLLHPFKDLVQLPVVTSSTIVRCRSCRTYINPFVSFLDQRRWKCNLCYRVNDVPEEFLYNPLTRVYGEPHRRPEVQNATIEFMAPSEYMLRPPQPPVYLFVFDVSHNAVETGYLNSVCQSLLDNLDLLPGNTRTKIGFITFDSTIHFYGLQESLSQPQMLIVSDIEDVFIPMPENLLVNLNESKELVQDLLKTLPQMFTKTLETQSALGPALQAAFKLMSPTGGRMSVFQTQLPTLGVGALKPREEPNHRSSAKDIHMTPSTDFYKKLALDCSGQQVAVDLFLLSGQYSDLASLGCISRYSAGSVYYYPSYHHQHNPVQVQKLQKELQRYLTRKIGFEAVMRIRCTKGLSIHTFHGNFFVRSTDLLSLPNVNPDAGYAVQMSVEESLTDTQLVSFQSALLYTSSKGERRIRVHTLCLPVVSTLNDVFLGADVQAISGLLANMAVDRSMTASLSDARDALVNAVIDSLSAYRSSVLSNQQPGLMVPFSLRLFPLFVLALLKQKSFQTGTNARLDERIFAMCQVKNQPLVYLMLTTHPSLYRVDNLSDEGALNISDRTIPQPPILQLSVEKLSRDGAFLMDAGSVLMLWVGKNCTQNFLSQVLGVQNYASIPQPMTDLPELDTPESARIIAFISWLREQRPFFPILYVIRDESPMKANFLQNMIEDRTESALSYYEFLLHIQQQVNK
Take B1: the binding result in assay [1] is reported as “binds”.

B2: SEC31A found with SEC23B by mass spectrometry (protein, UniProt O94979 1-1220)
chain: MKLKEVDRTAMQAWSPAQNHPIYLATGTSAQQLDATFSTNASLEIFELDLSDPSLDMKSCATFSSSHRYHKLIWGPYKMDSKGDVSGVLIAGGENGNIILYDPSKIIAGDKEVVIAQNDKHTGPVRALDVNIFQTNLVASGANESEIYIWDLNNFATPMTPGAKTQPPEDISCIAWNRQVQHILASASPSGRATVWDLRKNEPIIKVSDHSNRMHCSGLAWHPDVATQMVLASEDDRLPVIQMWDLRFASSPLRVLENHARGILAIAWSMADPELLLSCGKDAKILCSNPNTGEVLYELPTNTQWCFDIQWCPRNPAVLSAASFDGRISVYSIMGGSTDGLRQKQVDKLSSSFGNLDPFGTGQPLPPLQIPQQTAQHSIVLPLKKPPKWIRRPVGASFSFGGKLVTFENVRMPSHQGAEQQQQQHHVFISQVVTEKEFLSRSDQLQQAVQSQGFINYCQKKIDASQTEFEKNVWSFLKVNFEDDSRGKYLELLGYRKEDLGKKIALALNKVDGANVALKDSDQVAQSDGEESPAAEEQLLGEHIKEEKEESEFLPSSGGTFNISVSGDIDGLITQALLTGNFESAVDLCLHDNRMADAIILAIAGGQELLARTQKKYFAKSQSKITRLITAVVMKNWKEIVESCDLKNWREALAAVLTYAKPDEFSALCDLLGTRLENEGDSLLQTQACLCYICAGNVEKLVACWTKAQDGSHPLSLQDLIEKVVILRKAVQLTQAMDTSTVGVLLAAKMSQYANLLAAQGSIAAALAFLPDNTNQPNIMQLRDRLCRAQGEPVAGHESPKIPYEKQQLPKGRPGPVAGHHQMPRVQTQQYYPHGENPPPPGFIMHGNVNPNAAGQLPTSPGHMHTQVPPYPQPQPYQPAQPYPFGTGGSAMYRPQQPVAPPTSNAYPNTPYISSASSYTGQSQLYAAQHQASSPTSSPATSFPPPPSSGASFQHGGPGAPPSSSAYALPPGTTGTLPAASELPASQRTGPQNGWNDPPALNRVPKKKKMPENFMPPVPITSPIMNPLGDPQSQMLQQQPSAPVPLSSQSSFPQPHLPGGQPFHGVQQPLGQTGMPPSFSKPNIEGAPGAPIGNTFQHVQSLPTKKITKKPIPDEHLILKTTFEDLIQRCLSSATDPQTKRKLDDASKRLEFLYDKLREQTLSPTITSGLHNIARSIETRNYSEGLTMHTHIVSTSNFSETSAFMPVLKVVLTQANKLGV
On to B2, for which, in assay [1], the binding entry is given as “binds”.

B3: SEC13 found with SEC23B by mass spectrometry, P55735 1-322 (protein)
chain: MVSVINTVDTSHEDMIHDAQMDYYGTRLATCSSDRSVKIFDVRNGGQILIADLRGHEGPVWQVAWAHPMYGNILASCSYDRKVIIWREENGTWEKSHEHAGHDSSVNSVCWAPHDYGLILACGSSDGAISLLTYTGEGQWEVKKINNAHTIGCNAVSWAPAVVPGSLIDHPSGQKPNYIKRFASGGCDNLIKLWKEEEDGQWKEEQKLEAHSDWVRDVAWAPSIGLPTSTIASCSQDGRVFIWTCDDASSNTWSPKLLHKFNDVVWHVSWSITANILAVSGGDNKVTLWKESVDGQWVCISDVNKGQGSVSASVTEGQQNEQ
Consider B3, for which the binding entry in assay [2] is on record as “binds”.
